Source: the supplement of paper PMC10849652
The list shows a part of the results.

By UniProt entry, the sequences of proteins in these tests, tags left out. Where a name states a change or a piece, a line headed by the entry shows the natural chain unless it says otherwise.
UniProt Q9UKT8: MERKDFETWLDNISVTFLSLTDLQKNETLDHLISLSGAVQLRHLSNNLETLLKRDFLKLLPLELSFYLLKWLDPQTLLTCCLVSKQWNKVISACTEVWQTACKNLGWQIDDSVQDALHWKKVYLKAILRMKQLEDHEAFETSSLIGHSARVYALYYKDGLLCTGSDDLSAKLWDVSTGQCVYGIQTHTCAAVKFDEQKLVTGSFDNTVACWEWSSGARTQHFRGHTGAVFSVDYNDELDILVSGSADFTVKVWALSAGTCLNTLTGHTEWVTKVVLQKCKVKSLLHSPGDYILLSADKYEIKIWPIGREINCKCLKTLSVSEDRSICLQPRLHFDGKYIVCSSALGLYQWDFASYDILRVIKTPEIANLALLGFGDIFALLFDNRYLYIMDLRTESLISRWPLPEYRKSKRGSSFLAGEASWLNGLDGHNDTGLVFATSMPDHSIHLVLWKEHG
UniProt P26885: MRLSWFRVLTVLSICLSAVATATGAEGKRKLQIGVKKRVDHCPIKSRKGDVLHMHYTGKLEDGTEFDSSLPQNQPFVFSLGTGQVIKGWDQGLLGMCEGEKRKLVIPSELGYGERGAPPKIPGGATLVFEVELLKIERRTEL
UniProt Q9UKB1: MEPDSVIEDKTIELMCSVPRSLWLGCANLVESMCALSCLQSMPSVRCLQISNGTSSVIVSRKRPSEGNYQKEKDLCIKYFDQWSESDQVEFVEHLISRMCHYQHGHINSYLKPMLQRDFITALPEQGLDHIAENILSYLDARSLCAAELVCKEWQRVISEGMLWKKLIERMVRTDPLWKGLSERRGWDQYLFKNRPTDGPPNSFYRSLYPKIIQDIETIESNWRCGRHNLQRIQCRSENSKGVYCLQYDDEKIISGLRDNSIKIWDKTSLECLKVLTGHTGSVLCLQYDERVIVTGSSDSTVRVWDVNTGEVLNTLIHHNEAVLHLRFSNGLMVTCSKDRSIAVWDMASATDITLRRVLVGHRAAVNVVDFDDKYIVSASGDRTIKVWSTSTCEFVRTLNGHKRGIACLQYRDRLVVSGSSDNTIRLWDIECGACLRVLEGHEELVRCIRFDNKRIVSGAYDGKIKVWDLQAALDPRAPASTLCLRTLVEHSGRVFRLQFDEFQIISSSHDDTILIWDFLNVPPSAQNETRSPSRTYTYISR
UniProt Q9H9S5: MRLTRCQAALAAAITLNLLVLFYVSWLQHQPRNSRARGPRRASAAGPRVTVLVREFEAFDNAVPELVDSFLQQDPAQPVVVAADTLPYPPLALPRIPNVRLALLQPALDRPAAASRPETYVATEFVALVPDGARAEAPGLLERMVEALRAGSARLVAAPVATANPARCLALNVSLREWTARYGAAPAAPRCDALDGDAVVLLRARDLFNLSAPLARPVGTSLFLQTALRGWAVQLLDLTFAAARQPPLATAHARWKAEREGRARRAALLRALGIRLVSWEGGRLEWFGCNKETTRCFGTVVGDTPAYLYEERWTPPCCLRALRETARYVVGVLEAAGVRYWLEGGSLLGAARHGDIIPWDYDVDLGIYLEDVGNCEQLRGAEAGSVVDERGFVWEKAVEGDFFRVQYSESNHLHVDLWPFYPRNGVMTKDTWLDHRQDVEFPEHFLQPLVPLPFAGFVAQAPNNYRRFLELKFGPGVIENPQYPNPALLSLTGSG
UniProt Q96NB1: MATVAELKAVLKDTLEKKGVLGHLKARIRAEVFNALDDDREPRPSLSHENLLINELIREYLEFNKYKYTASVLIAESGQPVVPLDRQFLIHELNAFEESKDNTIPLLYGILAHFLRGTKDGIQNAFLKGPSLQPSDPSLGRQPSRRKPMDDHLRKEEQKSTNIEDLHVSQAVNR
UniProt Q96HJ9: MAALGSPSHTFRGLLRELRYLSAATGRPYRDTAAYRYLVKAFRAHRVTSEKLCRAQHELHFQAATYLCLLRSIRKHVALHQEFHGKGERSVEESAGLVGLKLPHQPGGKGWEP
UniProt Q6ZV73: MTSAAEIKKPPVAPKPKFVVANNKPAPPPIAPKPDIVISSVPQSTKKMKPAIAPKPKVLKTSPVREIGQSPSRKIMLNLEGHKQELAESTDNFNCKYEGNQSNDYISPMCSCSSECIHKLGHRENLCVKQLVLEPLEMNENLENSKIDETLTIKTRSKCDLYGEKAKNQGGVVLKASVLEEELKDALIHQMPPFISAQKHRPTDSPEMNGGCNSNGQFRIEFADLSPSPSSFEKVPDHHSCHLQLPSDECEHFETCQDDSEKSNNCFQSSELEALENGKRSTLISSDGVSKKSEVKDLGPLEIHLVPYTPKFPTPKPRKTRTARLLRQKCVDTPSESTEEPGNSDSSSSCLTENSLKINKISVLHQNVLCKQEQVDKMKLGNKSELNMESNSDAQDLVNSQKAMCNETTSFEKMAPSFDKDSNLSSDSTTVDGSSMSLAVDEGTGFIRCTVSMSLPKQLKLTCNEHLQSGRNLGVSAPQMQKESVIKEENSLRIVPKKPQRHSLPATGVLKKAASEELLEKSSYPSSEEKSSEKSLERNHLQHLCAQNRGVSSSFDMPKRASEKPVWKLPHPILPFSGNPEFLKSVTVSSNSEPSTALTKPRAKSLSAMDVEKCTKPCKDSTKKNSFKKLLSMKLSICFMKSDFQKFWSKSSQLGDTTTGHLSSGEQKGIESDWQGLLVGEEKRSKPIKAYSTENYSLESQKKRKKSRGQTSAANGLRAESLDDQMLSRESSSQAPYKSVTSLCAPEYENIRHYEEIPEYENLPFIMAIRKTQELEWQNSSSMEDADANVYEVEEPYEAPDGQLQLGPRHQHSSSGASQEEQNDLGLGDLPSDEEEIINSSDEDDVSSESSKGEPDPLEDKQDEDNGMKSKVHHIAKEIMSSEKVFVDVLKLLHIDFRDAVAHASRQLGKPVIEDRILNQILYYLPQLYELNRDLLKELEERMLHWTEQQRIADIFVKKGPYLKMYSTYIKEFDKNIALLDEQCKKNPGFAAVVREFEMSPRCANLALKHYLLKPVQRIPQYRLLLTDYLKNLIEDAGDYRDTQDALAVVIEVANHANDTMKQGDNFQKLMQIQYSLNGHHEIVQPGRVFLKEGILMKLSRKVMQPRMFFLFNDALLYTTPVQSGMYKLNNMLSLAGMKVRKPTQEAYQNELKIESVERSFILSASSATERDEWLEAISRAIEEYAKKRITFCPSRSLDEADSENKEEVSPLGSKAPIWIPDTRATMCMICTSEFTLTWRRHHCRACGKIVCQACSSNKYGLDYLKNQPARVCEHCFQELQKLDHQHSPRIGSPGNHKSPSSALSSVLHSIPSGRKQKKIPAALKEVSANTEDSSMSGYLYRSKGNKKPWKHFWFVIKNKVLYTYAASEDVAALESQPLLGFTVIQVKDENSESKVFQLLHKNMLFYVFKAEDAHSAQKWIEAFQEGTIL
UniProt Q8N3X1: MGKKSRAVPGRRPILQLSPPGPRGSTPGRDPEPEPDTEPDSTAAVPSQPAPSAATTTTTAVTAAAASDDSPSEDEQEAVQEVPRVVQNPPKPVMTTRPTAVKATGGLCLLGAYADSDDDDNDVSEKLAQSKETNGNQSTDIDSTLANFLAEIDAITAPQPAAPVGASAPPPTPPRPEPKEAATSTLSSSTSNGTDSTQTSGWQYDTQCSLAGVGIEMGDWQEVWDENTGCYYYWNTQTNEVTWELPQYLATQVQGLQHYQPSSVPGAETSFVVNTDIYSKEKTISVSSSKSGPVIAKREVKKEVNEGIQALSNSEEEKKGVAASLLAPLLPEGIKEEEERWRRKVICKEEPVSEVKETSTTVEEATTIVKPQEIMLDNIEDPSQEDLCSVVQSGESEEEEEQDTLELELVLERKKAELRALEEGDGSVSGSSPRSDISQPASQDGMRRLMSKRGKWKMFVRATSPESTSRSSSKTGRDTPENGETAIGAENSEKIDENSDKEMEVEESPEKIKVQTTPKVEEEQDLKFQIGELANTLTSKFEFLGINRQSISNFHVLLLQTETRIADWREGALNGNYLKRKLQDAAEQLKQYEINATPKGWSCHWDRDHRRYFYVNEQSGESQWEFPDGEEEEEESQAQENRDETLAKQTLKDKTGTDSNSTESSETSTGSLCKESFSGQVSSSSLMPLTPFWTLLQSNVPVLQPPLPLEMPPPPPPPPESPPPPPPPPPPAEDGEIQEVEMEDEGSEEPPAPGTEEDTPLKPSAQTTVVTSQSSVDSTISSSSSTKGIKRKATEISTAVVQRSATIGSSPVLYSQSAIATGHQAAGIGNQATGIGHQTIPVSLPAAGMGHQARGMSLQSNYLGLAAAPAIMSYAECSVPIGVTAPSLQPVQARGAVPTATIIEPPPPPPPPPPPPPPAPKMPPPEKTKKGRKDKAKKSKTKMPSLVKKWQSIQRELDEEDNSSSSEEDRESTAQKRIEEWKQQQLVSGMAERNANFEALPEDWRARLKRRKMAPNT
UniProt Q96PY5, whole entry, looked up: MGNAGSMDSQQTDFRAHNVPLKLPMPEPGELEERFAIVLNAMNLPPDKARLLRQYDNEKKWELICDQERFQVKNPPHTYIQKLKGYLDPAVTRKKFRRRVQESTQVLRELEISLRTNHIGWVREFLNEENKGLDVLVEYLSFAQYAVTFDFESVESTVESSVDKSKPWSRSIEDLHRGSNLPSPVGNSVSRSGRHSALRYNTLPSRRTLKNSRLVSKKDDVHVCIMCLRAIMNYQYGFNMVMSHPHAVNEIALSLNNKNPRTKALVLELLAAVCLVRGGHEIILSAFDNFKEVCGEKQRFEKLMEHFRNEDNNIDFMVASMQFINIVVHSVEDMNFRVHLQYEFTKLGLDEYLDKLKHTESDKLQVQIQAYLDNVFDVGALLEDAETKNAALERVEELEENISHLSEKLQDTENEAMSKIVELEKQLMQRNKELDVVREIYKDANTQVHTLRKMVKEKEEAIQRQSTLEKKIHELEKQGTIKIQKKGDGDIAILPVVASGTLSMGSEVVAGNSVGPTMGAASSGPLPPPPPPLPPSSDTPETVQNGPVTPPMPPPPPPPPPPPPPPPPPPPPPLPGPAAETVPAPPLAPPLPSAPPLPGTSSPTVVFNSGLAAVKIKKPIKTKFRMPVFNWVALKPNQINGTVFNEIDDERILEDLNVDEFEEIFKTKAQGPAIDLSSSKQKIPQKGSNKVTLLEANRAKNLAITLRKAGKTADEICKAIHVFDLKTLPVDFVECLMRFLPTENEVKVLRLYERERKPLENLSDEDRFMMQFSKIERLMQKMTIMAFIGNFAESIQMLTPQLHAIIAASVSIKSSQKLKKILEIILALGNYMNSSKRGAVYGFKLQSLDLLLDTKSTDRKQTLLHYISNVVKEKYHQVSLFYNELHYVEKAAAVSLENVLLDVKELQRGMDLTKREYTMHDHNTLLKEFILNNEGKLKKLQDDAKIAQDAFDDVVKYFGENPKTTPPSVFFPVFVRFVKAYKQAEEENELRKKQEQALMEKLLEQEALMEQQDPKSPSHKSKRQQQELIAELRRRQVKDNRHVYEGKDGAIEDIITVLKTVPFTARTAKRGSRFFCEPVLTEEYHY
UniProt Q9Y4F1: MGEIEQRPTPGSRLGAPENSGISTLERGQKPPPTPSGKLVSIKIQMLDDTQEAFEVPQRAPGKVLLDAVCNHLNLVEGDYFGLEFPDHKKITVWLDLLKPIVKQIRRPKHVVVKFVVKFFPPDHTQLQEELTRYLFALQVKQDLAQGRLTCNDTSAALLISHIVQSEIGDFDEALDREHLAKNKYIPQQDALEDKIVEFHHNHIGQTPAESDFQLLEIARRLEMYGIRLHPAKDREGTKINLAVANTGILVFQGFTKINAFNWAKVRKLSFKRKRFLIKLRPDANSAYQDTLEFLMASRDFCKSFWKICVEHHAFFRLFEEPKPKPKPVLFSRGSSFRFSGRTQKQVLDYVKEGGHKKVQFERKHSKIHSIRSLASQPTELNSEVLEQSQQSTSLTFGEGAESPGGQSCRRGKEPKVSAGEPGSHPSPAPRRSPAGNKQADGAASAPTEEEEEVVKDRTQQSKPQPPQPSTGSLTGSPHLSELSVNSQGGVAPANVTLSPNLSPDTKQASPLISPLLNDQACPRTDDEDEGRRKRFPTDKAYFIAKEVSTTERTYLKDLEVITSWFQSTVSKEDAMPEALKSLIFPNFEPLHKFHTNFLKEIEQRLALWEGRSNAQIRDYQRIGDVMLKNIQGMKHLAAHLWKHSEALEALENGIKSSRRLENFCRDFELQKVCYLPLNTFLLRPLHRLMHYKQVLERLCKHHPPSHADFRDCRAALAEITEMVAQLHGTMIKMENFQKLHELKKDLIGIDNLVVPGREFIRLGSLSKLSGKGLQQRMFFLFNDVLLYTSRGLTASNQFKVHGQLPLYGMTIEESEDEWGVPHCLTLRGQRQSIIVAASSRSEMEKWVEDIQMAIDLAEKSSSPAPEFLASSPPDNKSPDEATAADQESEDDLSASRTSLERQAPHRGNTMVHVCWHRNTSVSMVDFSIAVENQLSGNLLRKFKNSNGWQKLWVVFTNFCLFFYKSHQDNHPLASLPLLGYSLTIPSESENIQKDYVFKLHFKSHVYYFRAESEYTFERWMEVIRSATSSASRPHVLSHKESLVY

compound: CC1=C(C2=C(C=C1)C(=O)C3=CC=CC=C3N2CCCN)C; experiment: log2 fold change, soluble protein after heating vs DMSO (PISA); higher = thermal stabilisation; K562 lysate, 10 uM; active = over 0.2 and 3.5 SD of the protein, either way, in both replicates (recomputed)
Procedure, shortened: (§1)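 Log-two fold change in thermal stability relative to solvent controls is reported from duplicates. For each sample, crude K562 extract from dounce-homogenised pellets in PBS pH 7.4 with 1 mM MgCl2, at 1 mg/mL protein, was treated with 10 μM compound for 30 min. Aliquots heated for 3 min across 48°C-58°C were pooled, brought to 0.5% NP-40 at 4°C and cleared at 21,000xg for 90 min. The supernatant was quantified by TMTpro 16plex LC-MS/MS with channel sums equalised.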

| Target | log2 fold change |
| --- | --- |
| FBXW2 (UniProt Q9UKT8) | inactive: 0 |
| FKBP2 (UniProt P26885) | inactive: 0.005 |
| FHAD1 isoform 3 (UniProt B1AJZ9) | inactive: -0.098 |
| FBXW11 (UniProt Q9UKB1) | inactive: -0.047 |
| FKRP (UniProt Q9H9S5) | inactive: -0.086 |
| FOPNL (UniProt Q96NB1) | inactive: 0.141 |
| FMC1 (UniProt Q96HJ9) | inactive: -0.028 |
| FMR1 isoform 9 (UniProt Q06787) | inactive: 0.071 |
| FGD6 (UniProt Q6ZV73) | inactive: -0.029 |
| FEZ2 isoform 2 (UniProt Q9UHY8) | inactive: -0.034 |
| FNBP4 isoform 2 (UniProt Q8N3X1) | inactive: -0.024 |
| FMNL2 isoform 3 (UniProt Q96PY5) | inactive: 0.071 |
| FBRSL1, A0A3B3IRR3 | inactive: 0.183 |
| FBXL12 (UniProt Q9NXK8) | inactive: -0.05 |
| FBXO46 (UniProt Q6PJ61) | inactive: 0.002 |
| FBXO44 isoform 2 (UniProt Q9H4M3) | inactive: 0.048 |
| FARP1 isoform 2 (UniProt Q9Y4F1) | inactive: 0.096 |
| FOXJ2 (UniProt Q9P0K8) | inactive: -0.129 |
| FLT4 (UniProt P35916) | inactive: 0.038 |
| FBRS (UniProt J3KNZ9) | inactive: -0.056 |

compound: CC1=C(C=C(C=C1)NC(=O)C2=CC(=CC=C2)C(C)(C)C#N)NC3=CC4=C(C=C3)N=CN(C4=O)C; experiment: as above
Procedure, shortened: as §1

| Target | log2 fold change |
| --- | --- |
| FBXW2 (UniProt Q9UKT8) | inactive: -0.07 |
| FKBP2 (UniProt P26885) | inactive: -0.053 |
| FBXW11 (UniProt Q9UKB1) | inactive: 0.009 |
| FKRP (UniProt Q9H9S5) | inactive: 0.05 |
| FOPNL (UniProt Q96NB1) | inactive: 0.009 |
| FMC1 (UniProt Q96HJ9) | inactive: 0.027 |
| FMR1 isoform 9 (UniProt Q06787) | inactive: -0.048 |
| FGD6 (UniProt Q6ZV73) | inactive: 0.446 |
| FEZ2 isoform 2 (UniProt Q9UHY8) | inactive: 0.055 |
| FANCC (UniProt Q00597) | inactive: -0.093 |
| FNBP4 isoform 2 (UniProt Q8N3X1) | inactive: 0.003 |
| FMNL2 isoform 3 (UniProt Q96PY5) | inactive: 0.116 |
| FBH1 isoform 2 (UniProt Q8NFZ0) | inactive: -0.032 |
| FBRSL1, A0A3B3IRR3 | active: -0.381 |
| FAT2 (UniProt Q9NYQ8) | inactive: 0.166 |
| FBXL12 (UniProt Q9NXK8) | inactive: 0.004 |
| FARS2 (UniProt O95363) | inactive: 0.022 |
| FBXO45 (UniProt P0C2W1) | inactive: 0.064 |
| FBXO46 (UniProt Q6PJ61) | inactive: -0.009 |
| FBLN1 (UniProt P23142) | inactive: 0.147 |
| FIP1L1 isoform 3 (UniProt Q6UN15) | inactive: -0.169 |
| FARP1 isoform 2 (UniProt Q9Y4F1) | inactive: 0.069 |
| FBRS (UniProt J3KNZ9) | inactive: -0.115 |

compound: CC1=C(C=C(C=C1)NC(=O)C2=CC(=CC=C2)N(C)C)NC(=O)C3=CC=C(C=C3)O; experiment: as above
Procedure, shortened: as §1

| Target | log2 fold change |
| --- | --- |
| FBXW2 (UniProt Q9UKT8) | inactive: 0.103 |
| FKBP2 (UniProt P26885) | inactive: -0.027 |
| FHAD1 isoform 3 (UniProt B1AJZ9) | inactive: 0 |
| FBXW11 (UniProt Q9UKB1) | inactive: 0.045 |
| FKRP (UniProt Q9H9S5) | inactive: -0.017 |
| FOPNL (UniProt Q96NB1) | inactive: 0.077 |
| FMC1 (UniProt Q96HJ9) | inactive: -0.102 |
| FMR1 isoform 9 (UniProt Q06787) | inactive: 0.17 |
| FAM86B2 (UniProt P0C5J1) | inactive: -0.095 |
| FBXW8 (UniProt Q8N3Y1) | inactive: 0.055 |
| FGD6 (UniProt Q6ZV73) | inactive: -0.008 |
| FEZ2 isoform 2 (UniProt Q9UHY8) | inactive: 0.006 |
| FANCC (UniProt Q00597) | inactive: 0.026 |
| FNBP4 isoform 2 (UniProt Q8N3X1) | inactive: 0.001 |
| FMNL2 isoform 3 (UniProt Q96PY5) | inactive: 0.048 |
| FIZ1 (UniProt Q96SL8) | inactive: -0.06 |
| FBRSL1, A0A3B3IRR3 | inactive: 0.012 |
| FAT2 (UniProt Q9NYQ8) | inactive: 0.038 |
| FBXL12 (UniProt Q9NXK8) | inactive: -0.003 |
| FARS2 (UniProt O95363) | inactive: 0.053 |
| FBXO45 (UniProt P0C2W1) | inactive: 0.018 |
| FBXO46 (UniProt Q6PJ61) | inactive: 0.053 |
| FBLN1 (UniProt P23142) | inactive: -0.014 |
| FEM1A (UniProt Q9BSK4) | inactive: 0.145 |
| FIP1L1 isoform 3 (UniProt Q6UN15) | inactive: -0.098 |
| FBXO44 isoform 2 (UniProt Q9H4M3) | inactive: 0.112 |
| FARP1 isoform 2 (UniProt Q9Y4F1) | inactive: 0.079 |
| FOXJ2 (UniProt Q9P0K8) | inactive: 0.108 |
| FLT4 (UniProt P35916) | inactive: -0.019 |
| FBRS (UniProt J3KNZ9) | inactive: -0.046 |
